The values below come from patent US20110021746A1 (published 2011).

By UniProt entry, the sequences of proteins in these tests, tags left out. Residues count along the entry.
UniProt P35968, residues 20-764: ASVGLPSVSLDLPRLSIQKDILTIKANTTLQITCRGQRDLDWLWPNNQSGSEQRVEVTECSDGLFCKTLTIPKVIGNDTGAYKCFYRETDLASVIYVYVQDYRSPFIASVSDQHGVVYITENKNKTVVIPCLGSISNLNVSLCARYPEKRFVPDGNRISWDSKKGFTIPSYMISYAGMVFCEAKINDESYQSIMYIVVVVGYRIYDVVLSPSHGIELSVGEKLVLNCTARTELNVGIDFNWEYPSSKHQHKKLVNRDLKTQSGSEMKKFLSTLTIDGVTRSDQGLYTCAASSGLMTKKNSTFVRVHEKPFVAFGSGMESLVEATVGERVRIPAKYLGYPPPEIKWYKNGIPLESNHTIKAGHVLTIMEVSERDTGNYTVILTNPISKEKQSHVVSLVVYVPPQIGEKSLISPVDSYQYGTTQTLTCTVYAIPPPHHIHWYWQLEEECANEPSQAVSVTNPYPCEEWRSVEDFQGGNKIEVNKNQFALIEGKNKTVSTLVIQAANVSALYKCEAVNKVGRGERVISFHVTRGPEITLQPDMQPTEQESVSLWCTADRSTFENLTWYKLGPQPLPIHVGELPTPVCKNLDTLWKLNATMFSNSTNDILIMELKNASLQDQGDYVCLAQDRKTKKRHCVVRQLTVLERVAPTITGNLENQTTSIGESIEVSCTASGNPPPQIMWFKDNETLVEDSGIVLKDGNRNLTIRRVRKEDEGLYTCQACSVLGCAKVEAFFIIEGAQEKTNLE

No constants are given. Whether binding was seen depends on the method and setting. Some binding calls cover weakened binding; strength is not graded here.

B1: SEQ ID NO 242 (designed binder)
chain: NVSPPRRARVTDATETTITIRWTLAGPIAGFQVDAVPANGQTPIQRTIHADTSTYTITGLQPGTDYKIYLYTLNDNARSSPVVIDAST
B2: SEQ ID NO 247 (designed binder)
chain: NVSPPRRARVTDATETTITIRWTRAPSQDGFQVDAVPANGQTPIQRTINADTTVYTITGLQPGTDYKIYLYTLNDNARSSPVVIDAST
B3: SEQ ID NO 240 (designed binder)
chain: NVSPPRRARVTDATETTITIRWERAPSEVDGFQVDAVPANGQTPIQRTIHADTNIYTITGLQPGTDYKIYLYTLNDNARSSPVVIDAST
B4: SEQ ID NO 246 (designed binder)
chain: NVSPPRRARVTDATETTITIRWERAQGEVDGFQVDAVPANGQTPIQRTIHADTNVYTITGLQPGTDYKIYLYTLNDNARSSPVVIDAST
B5: SEQ ID NO 264 (designed binder)
chain: NVSPPRRARVTDATETTITIRWERAPGEVDGFQVDAVPANGQTPIQRTINADTNIYTITGLQPGTDYKIYLYTLNDNARSSPVVIDAST
B6: SEQ ID NO 254 (designed binder)
chain: NVSPPRRARVTDATETTITIRWERAAGEFAGFQVDAVPANGQTPIQRTIHADTNIYTITGLQPGTDYKIYLYTLNDNARSSPVVIDAST
B7: SEQ ID NO 245 (designed binder)
chain: NVSPPRRARVTDATETTITIRWKVPVHRNSTLISFQVDAVPANGQTPIQRTINATTNVYTITGLQPGTDYKIYLYTLNDNARSSPVVIDAST
B8: SEQ ID NO 263 (designed binder)
chain: NVSPPRRARVTDATETTITIRWTVPVHRDSEIISFQVDAVPANGQTPIQRTINATTNVYTITGLQPGTDYKIYLYTLNDNARSSPVVIDAST
B9: SEQ ID NO 244 (designed binder)
chain: NVSPPRRARVTDATETTITIRWRAPEANGGSAVPGFQVDAVPANGQTPIQRTINADTSTYTITGLQPGTDYKIYLYTLNDNARSSPVVIDAST
B10: SEQ ID NO 253 (designed binder)
chain: NVSPPRRARVTDATETTITIRWRTPADNGGGGIPSFQVDAVPVNGQTPIQRTINADISTYTITGLQPGTDYKIYLYTLNDNARSSPVVIDAST
B11: SEQ ID NO 249 (designed binder)
chain: NVSPPRRARVTDATETTITIRWGAPEDDGGGTVPGFQVDAVPANGQTPIQRTINADTSTYTITGLQPGTDYKIYLYTLNDNARSSPVVIDAST
B12: SEQ ID NO 255 (designed binder)
chain: NVSPPRRARVTDATETTITIRWRTPIDAGGGQVPSFQVDAVPANGQTPIQRTINADVSTYTITGLQPGTDYKIYLYTLNDNARSSPVVIDAST
B13: SEQ ID NO 251 (designed binder)
chain: NVSPPRRARVTDATETTITIRWNTPENDGGGTVPGFQVDAVPANGQTPIQRTINADVSTYTITGLQPGTDYKIYLYTLNDNARSSPVVIDAST
B14: SEQ ID NO 252 (designed binder)
chain: NVSPPRRARVTDATETTITIRWTLGDQVSSAIPGFQVDAVPANGQTPIQRTINADVSTYTITGLQPGTDYKIYLYTLNDNARSSPVVIDAST
B15: SEQ ID NO 256 (designed binder)
chain: NVSPPRRARVTDATETTITIRWKLPIGRGSEIPGFQVDAVPANGQTPIQRTINADVSTYTITGLQPGTDYKIYLYTLNDNARSSPVVIDAST
B16: SEQ ID NO 238 (designed binder)
chain: NVSPPRRARVTDATETTITIRWQQPVEADGIIPSFQVDAVPANGQTPIQRTIHADISTYTITGLQPGTDYKIYLYTLNDNARSSPVVIDAST
B17: SEQ ID NO 250 (designed binder)
chain: NVSPPRRARVTDATETTITIRWELPIKASSIIPSFQVDAVPANGQTPIQRTIQADVSTYTITGLQPGTDYKIYLYTLNDNARSSPVVIDAST
B18: SEQ ID NO 239 (designed binder)
chain: NVSPPRRARVTDATETTITIRWELPINRNSTIPSFQVDAVPANGQTPIQRTINADISTYTITGLQPGTDYKIYLYTLNDNARSSPVVIDAST
B19: 1637102_VGR2H03 (designed binder)
chain: NVSPPRRARVTDATETTITIRWTLPVQANGIVPGFQVDAVPANGQTPIQRTIHADVSTYTITGLQPGTDYKIYLYTLNDNARSSPVVIDAST
B20: SEQ ID NO 258 (designed binder)
chain: NVSPPRRARVTDATETTITIRWQLPIKASSEVPGFQVDAVPANGQTPIQRTINADVSTYTITGLQPGTDYKIYLYTLNDNARSSPVVIDAST
B21: SEQ ID NO 241 (designed binder)
chain: NVSPPRRARVTDATETTITIRWQLPGDANGEVPGFQVDAVPANGQTPIQRTINADVSTYTITGLQPGTDYKIYLYTLNDNARSSPVVIDAST
B22: SEQ ID NO 243 (designed binder)
chain: NVSPPRRARVTDATETTITIRWKLPIEADGIVPSFQVDAVPANGQTPIQRTIQADVSTYTITGLQPGTDYKIYLYTLNDNARSSPVVIDAST
B23: SEQ ID NO 262 (designed binder)
chain: NVSPPRRARVTDATETTITIRWQQPIRASGELPGFQVDAVPANGQTPIQRTINADTNIYTITGLQPGTDYKIYLYTLNDNARSSPVVIDAST
B24: SEQ ID NO 260 (designed binder)
chain: NVSPPRRARVTDATETTITIRWQVGVDADSPIPSFQVDAVPANGQTPIQRTIHADISTYTITGLQPGTDYKIYLYTLNDNARSSPVVIDAST
B25: SEQ ID NO 257 (designed binder)
chain: NVSPPRRARVTDATETTITIRWALGVDASSVIPGFQVDAVPANGQTPIQRTINADVSTYTITGLQPGTDYKIYLYTLNDNARSSPVVIDAST
B26: SEQ ID NO 261 (designed binder)
chain: NVSPPRRARVTDATETTITIRWKLPIKPNSTIPSFQVDAVPANGQTPIQRTIHADVSTYTITGLQPGTDYKIYLYTLNDNARSSPVVIDAST
B27: SEQ ID NO 259 (designed binder)
chain: NVSPPRRARVTDATETTITIRWKVPIQRDSIVPGFQVDAVPANGQTPIQRTINADTSTYTITGLQPGTDYKIYLYTLNDNARSSPVVIDAST

The assay deals with VEGFR2 (UniProt P35968). The assay can be described thus: phage display selection.
Turning to B1, the binding result is “binds”.

Regarding B2, the binding entry was “binds”.

On to B3, for which the binding entry is recorded as “binds”.

With B4, the binding entry is given as “binds”.

On to B5, for which the binding entry is reported as “binds”.

Regarding B6, the binding result is reported as “binds”.

As for B7, the binding entry was “binds”.

Take B8: the binding entry is given as “binds”.

Consider B9, for which the binding result was “binds”.

As for B10, the binding entry was “binds”.

Turning to B11, the binding entry is on record as “binds”.

In the case of B12, the binding entry is given as “binds”.

Consider B13, for which the binding result was “binds”.

Turning to B14, the binding entry is recorded as “binds”.

Consider B15, for which the binding entry is listed as “binds”.

As for B16, the binding result is recorded as “binds”.

As for B17, the binding result is given as “binds”.

For the molecule B18, the binding result was “binds”.

B19: the binding result is recorded as “binds”.

For the molecule B20, the binding result was “binds”.

Take B21: the binding entry is “binds”.

Consider B22, for which the binding entry is recorded as “binds”.

B23: the binding entry was “binds”.

As for B24, the binding result is recorded as “binds”.

Turning to B25, the binding result is reported as “binds”.

For the molecule B26, the binding result is on record as “binds”.

In the case of B27, the binding result was “binds”.
